This is an account of results in article PMC7647121.

No constants are given. Whether binding was seen depends on the method and setting. A result given as binding can be weak or reduced; the word gives no strength.

The target in experiment [1] is Leishmania mexicana UEV1 (LmxM.13.1580) (Leishmania mexicana) (UniProt E9API2). The experiment is described as follows: SEC-MALS; SEC-MALLS; Superdex 200 HR10/300; 25 mM Tris-HCl, 150 mM NaCl, 1 mM DTT, pH 8; samples loaded at 1.2-2 mg/mL; mixtures (1:1 molar) incubated on ice for 30 min before loading; both purified.
The target is the same in experiment [2]. The experiment is described as follows: crystal structure; UBC2 and UEV1 mixed 1:1 molar, 6.6 mg/mL in 50 mM HEPES, 150 mM NaCl, 2 mM DTT; crystals from 0.1 M Bis-Tris propane pH 7.5, 0.2 M sodium formate, 20% PEG at 25°C; space group P21, two heterodimers in the asymmetric unit; 1.7 Å; both purified.

Turning to “Leishmania mexicana UBC2 (LmxM.04.0680) (from UniProt E9AK51) (enzyme)”, the binding entry in experiment [1] and in experiment [2] was “binds” throughout.
